# Source: PubChem BioAssay AID272 (DTP/NCI, 2004)
# The list is a part of this screen's results and no random one: it is rich in T/C values a quarter to a half above the control, in often repeated tests (any T/C) and in doses without a T/C. Further doses and runs are listed elsewhere. T/C: endpoint of the treated group in % of that of the vehicle group. Some doses have a count of surviving animals in place of a T/C: the source holds a T/C of zero for them, seemingly a mark for toxic or unscored doses. Some doses without a T/C left all or most animals alive at the check, yet need not have been tolerated: the source hardly ever lists a survival T/C far under the control, and the zero likely stands for such cases as well. Counts of survivors are from the toxicity check (mostly the fifth day) where no day follows; animals may have died later. Schedule codes are those of the source, read here as Q, the interval in days (D) or hours (H), X, the number of doses. Some entries were tested several times; the values are given in rising order. Signs of the kind (2×) give the number of equal values in this list. For survival time, this PubChem deposit counts one and a half times the control or more as active, and values a quarter to a half above the control carry no call in these data; other NCI protocols may use other cut-offs.
# Test system: Lewis lung carcinoma i.m., BDF1 mice, T/C %
# Assay: NCI In Vivo Anticancer Drug Screen. Data for tumor model Lewis Lung Carcinoma (intramuscular) in B6D2F1 (BDF1) mice
# Procedure, shortened: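 Mice carrying transplantable tumours received test compound. Survival or tumour size was recorded and expressed as the treated-group value (T) divided by the vehicle-treated control-group value (C).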
# [1] = T/C endpoint: median survival time, dose: 16.0 mg/kg/injection, schedule: Q01DX011 (ip), vehicle: Klucel (hydroxypropylcellulose) (HPC), higher T/C = longer survival
# [2] = T/C endpoint: median survival time, dose: 1.0 mg/kg/injection, schedule: Q01DX011 (ip), vehicle: saline, higher T/C = longer survival
# [3] = T/C endpoint: median survival time, dose: 50.0 mg/kg/injection, schedule: Q01DX011 (ip), vehicle: saline, higher T/C = longer survival
structure (smiles),measurement,setting,value
C[C@]12C=CC(=O)C=C1CC[C@@H]1[C@@H]2C(=O)C[C@@]2(C)[C@H]1CC[C@]2(O)C(=O)CO,survivor count,"T/C endpoint: mean tumor weight, dose: 65.0 mg/kg/injection, schedule: Q01DX009 (ip), vehicle: water, higher T/C = larger tumour",5 of 8
same,survivor count,"T/C endpoint: mean tumor weight, dose: 108.0 mg/kg/injection, schedule: Q01DX009 (ip), vehicle: water, higher T/C = larger tumour",2 of 8
same,survivor count,"T/C endpoint: mean tumor weight, dose: 180.0 mg/kg/injection, schedule: Q01DX009 (ip), vehicle: water, higher T/C = larger tumour",1 of 8
same,survivor count,"T/C endpoint: median survival time, dose: 65.0 mg/kg/injection, schedule: Q01DX009 (ip), vehicle: water, higher T/C = longer survival",5 of 8
same,survivor count,"T/C endpoint: median survival time, dose: 100.0 mg/kg/injection, schedule: Q01DX011 (ip), vehicle: carboxymethylcellulose (CMC), higher T/C = longer survival",4 of 10 and 8 of 10
same,survivor count,"T/C endpoint: median survival time, dose: 108.0 mg/kg/injection, schedule: Q01DX009 (ip), vehicle: water, higher T/C = longer survival",2 of 8
same,survivor count,"T/C endpoint: median survival time, dose: 144.0 mg/kg/injection, schedule: Q01DX007 (sc), vehicle: saline, higher T/C = longer survival",5 of 8
same,survivor count,"T/C endpoint: median survival time, dose: 180.0 mg/kg/injection, schedule: Q01DX009 (ip), vehicle: water, higher T/C = longer survival",1 of 8
same,survivor count,"T/C endpoint: median survival time, dose: 200.0 mg/kg/injection, schedule: Q01DX011 (ip), vehicle: carboxymethylcellulose (CMC), higher T/C = longer survival",7 of 10 and 9 of 10
same,survivor count,"T/C endpoint: median survival time, dose: 200.0 mg/kg/injection, schedule: Q01DX011 (ip), vehicle: saline, higher T/C = longer survival",6 of 8
same,survivor count,"T/C endpoint: median survival time, dose: 200.0 mg/kg/injection, schedule: Q01DX011 (ip), vehicle: water, higher T/C = longer survival",4 of 8
same,survivor count,"T/C endpoint: median survival time, dose: 240.0 mg/kg/injection, schedule: Q01DX007 (sc), vehicle: saline, higher T/C = longer survival",8 of 8
same,survivor count,"T/C endpoint: median survival time, dose: 400.0 mg/kg/injection, schedule: Q01DX011 (ip), vehicle: carboxymethylcellulose (CMC), higher T/C = longer survival",0 of 10 and 7 of 10
NC(Cc1ccc(N(CCCl)CCCl)cc1)C(=O)O (stereo not given),survivor count,"T/C endpoint: median survival time, dose: 4.0 mg/kg/injection, schedule: Q01DX011 (ip), vehicle: Klucel (hydroxypropylcellulose) (HPC), higher T/C = longer survival",6 of 8
same,survivor count,"T/C endpoint: median survival time, dose: 8.0 mg/kg/injection, schedule: Q01DX011 (ip), vehicle: Klucel (hydroxypropylcellulose) (HPC), higher T/C = longer survival",2 of 8
same,survivor count,[1],0 of 8
COc1cc2c3c(c4ccc(OC)c(OC)c4c2cc1OC)CN1CCC[C@@H]1C3,survivor count,"T/C endpoint: mean tumor weight, dose: 16.0 mg/kg/injection, schedule: Q01DX011 (ip), vehicle: Klucel (hydroxypropylcellulose) (HPC), higher T/C = larger tumour",5 of 8
same,survivor count,[1],6 of 8
O=C1NC(=O)C(F)(F)C(O)N1 (stereo not given),T/C,"T/C endpoint: median survival time, dose: 160.0 mg/kg/injection, schedule: Q01DX011 (ip), vehicle: saline, higher T/C = longer survival",142 % of control
same,survivor count,"T/C endpoint: median survival time, dose: 320.0 mg/kg/injection, schedule: Q01DX011 (ip), vehicle: saline, higher T/C = longer survival",0 of 8
same,survivor count,"T/C endpoint: median survival time, dose: 640.0 mg/kg/injection, schedule: Q01DX011 (ip), vehicle: saline, higher T/C = longer survival",0 of 8
Nc1cc(I)c2cccnc2c1O,survivor count,"T/C endpoint: mean tumor weight (est.), dose: 50.0 mg/kg/injection, schedule: Q01DX011 (ip), vehicle: saline with Tween-80, higher T/C = larger tumour",1 of 8
same,survivor count,"T/C endpoint: median survival time, dose: 50.0 mg/kg/injection, schedule: Q01DX011 (ip), vehicle: saline with Tween-80, higher T/C = longer survival",1 of 8
COC(=O)C[C@](O)(CCC(C)(C)O)C(=O)O[C@@H]1C(OC)=C[C@]23CCCN2CCc2cc4c(cc2[C@H]13)OCO4,survivor count,"T/C endpoint: mean tumor weight, dose: 1.0 mg/kg/injection, schedule: Q01DX011 (ip), vehicle: saline, higher T/C = larger tumour",3 of 8
same,survivor count,"T/C endpoint: mean tumor weight, dose: 2.0 mg/kg/injection, schedule: Q01DX011 (ip), vehicle: water, higher T/C = larger tumour",5 of 8
same,survivor count,[2],3 of 8
same,survivor count,"T/C endpoint: median survival time, dose: 2.0 mg/kg/injection, schedule: Q01DX011 (ip), vehicle: saline, higher T/C = longer survival",0 of 8
O=C[C@@H](CO)O[C@H](C=O)n1cnc2c(=O)[nH]cnc21,survivor count,"T/C endpoint: mean tumor weight, dose: 180.0 mg/kg/injection, schedule: Q01DX011 (ip), vehicle: saline, higher T/C = larger tumour",5 of 8
same,T/C,"T/C endpoint: median survival time, dose: 37.5 mg/kg/injection, schedule: Q01DX011 (ip), vehicle: saline, higher T/C = longer survival",132 % of control
same,T/C,"T/C endpoint: median survival time, dose: 150.0 mg/kg/injection, schedule: Q01DX011 (ip), vehicle: saline, higher T/C = longer survival",143 % of control
same,survivor count,"T/C endpoint: median survival time, dose: 180.0 mg/kg/injection, schedule: Q01DX011 (ip), vehicle: saline, higher T/C = longer survival",5 of 8
same,survivor count,"T/C endpoint: median survival time, dose: 300.0 mg/kg/injection, schedule: Q01DX011 (ip), vehicle: saline, higher T/C = longer survival",0 of 8 (2×)
O=c1n(CC2CO2)c(=O)n(CC2CO2)c(=O)n1CC1CO1 (stereo not given),survivor count,[3],10 of 10
O=c1cnn(C2OC(CO)C(O)C2O)c(=O)[nH]1 (stereo not given),T/C,"T/C endpoint: median survival time, dose: 75.0 mg/kg/injection, schedule: Q01DX009 (ip), vehicle: Klucel (hydroxypropylcellulose) (HPC), higher T/C = longer survival",133 % of control
same,T/C,"T/C endpoint: median survival time, dose: 150.0 mg/kg/injection, schedule: Q01DX009 (ip), vehicle: Klucel (hydroxypropylcellulose) (HPC), higher T/C = longer survival",127 % of control
same,T/C,"T/C endpoint: median survival time, dose: 300.0 mg/kg/injection, schedule: Q01DX009 (ip), vehicle: Klucel (hydroxypropylcellulose) (HPC), higher T/C = longer survival",137 % of control
same,T/C,"T/C endpoint: median survival time, dose: 600.0 mg/kg/injection, schedule: Q01DX009 (ip), vehicle: Klucel (hydroxypropylcellulose) (HPC), higher T/C = longer survival",134 % of control
same,survivor count,"T/C endpoint: median survival time, dose: 1200.0 mg/kg/injection, schedule: Q01DX009 (ip), vehicle: Klucel (hydroxypropylcellulose) (HPC), higher T/C = longer survival",9 of 10
CCCCc1ccc(NC(=O)N(CCCl)N=O)cc1,survivor count,"T/C endpoint: median survival time, dose: 8.4 mg/kg/injection, schedule: Q07DX003 (ip), vehicle: Klucel (hydroxypropylcellulose) (HPC), higher T/C = longer survival",8 of 8
O=C(CCl)Nc1ccc(C(=O)O)cc1,survivor count,"T/C endpoint: median survival time, dose: 30.0 mg/kg/injection, schedule: Q01DX011 (ip), vehicle: saline with Tween-80, higher T/C = longer survival",3 of 8
same,survivor count,"T/C endpoint: median survival time, dose: 60.0 mg/kg/injection, schedule: Q01DX011 (ip), vehicle: saline with Tween-80, higher T/C = longer survival",0 of 8
CCOC(=O)C(CS)NC(=O)CCNC(C)=O (stereo not given),T/C,"T/C endpoint: median survival time, dose: 16.0 mg/kg/injection, schedule: Q01DX009 (ip), vehicle: water, higher T/C = longer survival",133 % of control
NC(Cc1c[nH]c2ccc(N(CCCl)CCCl)cc12)C(=O)O (stereo not given),T/C,"T/C endpoint: median survival time, dose: 0.12 mg/kg/injection, schedule: Q01DX011 (ip), vehicle: acid diluted with saline, higher T/C = longer survival",138 % of control
same,T/C,"T/C endpoint: median survival time, dose: 1.0 mg/kg/injection, schedule: Q01DX011 (ip), vehicle: acid diluted with saline, higher T/C = longer survival",133 % of control
same,survivor count,"T/C endpoint: median survival time, dose: 2.0 mg/kg/injection, schedule: Q01DX011 (ip), vehicle: acid diluted with saline, higher T/C = longer survival",5 of 8
same,survivor count,"T/C endpoint: median survival time, dose: 2.0 mg/kg/injection, schedule: Q01DX011 (ip), vehicle: other, higher T/C = longer survival",8 of 8
CCOC(=O)c1nc(C)[nH]c(=O)c1C,survivor count,"T/C endpoint: median survival time, dose: 32.0 mg/kg/injection, schedule: Q01DX009 (ip), vehicle: water, higher T/C = longer survival",10 of 10
COc1cc([C@@H]2c3cc4c(cc3C[C@H]3COC(=O)[C@@H]32)OCO4)cc(OC)c1OC,survivor count,"T/C endpoint: mean tumor weight (est.), dose: 20.0 mg/kg/injection, schedule: Q01DX011 (ip), vehicle: saline, higher T/C = larger tumour",5 of 8
same,survivor count,"T/C endpoint: mean tumor weight, dose: 25.0 mg/kg/injection, schedule: Q01DX011 (ip), vehicle: saline, higher T/C = larger tumour",1 of 8
same,survivor count,"T/C endpoint: median survival time, dose: 25.0 mg/kg/injection, schedule: Q01DX011 (ip), vehicle: saline, higher T/C = longer survival",1 of 8
same,survivor count,[3],0 of 8
COC12C(COC(N)=O)C3=C(C(=O)C(C)=C(N)C3=O)N1CC1C2N1C (stereo not given),survivor count,"T/C endpoint: median survival time, dose: 4.0 mg/kg/injection, schedule: Q01DX011 (ip), vehicle: saline + alcohol, higher T/C = longer survival",10 of 10
same,survivor count,"T/C endpoint: median survival time, dose: 8.0 mg/kg/injection, schedule: Q01DX009 (ip), vehicle: Klucel (hydroxypropylcellulose) (HPC), higher T/C = longer survival",10 of 10
same,survivor count,"T/C endpoint: median survival time, dose: 8.0 mg/kg/injection, schedule: Q01DX011 (ip), vehicle: saline + alcohol, higher T/C = longer survival",6 of 10 and 10 of 10
same,survivor count,"T/C endpoint: median survival time, dose: 16.0 mg/kg/injection, schedule: Q01DX009 (ip), vehicle: Klucel (hydroxypropylcellulose) (HPC), higher T/C = longer survival",10 of 10
same,survivor count,"T/C endpoint: median survival time, dose: 16.0 mg/kg/injection, schedule: Q01DX011 (ip), vehicle: saline + alcohol, higher T/C = longer survival",0 of 10 and 7 of 10
same,survivor count,"T/C endpoint: median survival time, dose: 32.0 mg/kg/injection, schedule: Q01DX009 (ip), vehicle: Klucel (hydroxypropylcellulose) (HPC), higher T/C = longer survival",10 of 10
same,survivor count,"T/C endpoint: median survival time, dose: 32.0 mg/kg/injection, schedule: Q01DX011 (ip), vehicle: saline + alcohol, higher T/C = longer survival",0 of 10
O=C(CBr)c1ccc(I)cc1,survivor count,"T/C endpoint: median survival time, dose: 20.0 mg/kg/injection, schedule: Q01DX011 (ip), vehicle: saline with Tween-80, higher T/C = longer survival",5 of 8
Cc1nc(N)sc1CCCl,survivor count,"T/C endpoint: mean tumor weight (est.), dose: 80.0 mg/kg/injection, schedule: Q01DX011 (ip), vehicle: saline, higher T/C = larger tumour",4 of 8
same,survivor count,"T/C endpoint: median survival time, dose: 80.0 mg/kg/injection, schedule: Q01DX011 (ip), vehicle: saline, higher T/C = longer survival",4 of 8
CCCCCCCCCCCC(c1ccccc1)[N+](C)(C)C (stereo not given),survivor count,"T/C endpoint: mean tumor weight (est.), dose: 1.0 mg/kg/injection, schedule: Q01DX011 (ip), vehicle: saline, higher T/C = larger tumour",5 of 8
same,survivor count,[2],5 of 8
same,survivor count,"T/C endpoint: median survival time, dose: 8.0 mg/kg/injection, schedule: Q01DX011 (ip), vehicle: saline, higher T/C = longer survival",0 of 8
same,survivor count,"T/C endpoint: median survival time, dose: 16.0 mg/kg/injection, schedule: Q01DX011 (ip), vehicle: saline, higher T/C = longer survival",0 of 8
